Experimental data from patent publication US7473704B2, “Cyclohexyl prostaglandin analogs as EP4-receptor agonists” (Allergan, Inc., priority 2003, dated 2009).
The match of structure and compound is tentative.

By UniProt entry, the sequences of proteins in these tests, tags left out.
UniProt P35408, whole entry: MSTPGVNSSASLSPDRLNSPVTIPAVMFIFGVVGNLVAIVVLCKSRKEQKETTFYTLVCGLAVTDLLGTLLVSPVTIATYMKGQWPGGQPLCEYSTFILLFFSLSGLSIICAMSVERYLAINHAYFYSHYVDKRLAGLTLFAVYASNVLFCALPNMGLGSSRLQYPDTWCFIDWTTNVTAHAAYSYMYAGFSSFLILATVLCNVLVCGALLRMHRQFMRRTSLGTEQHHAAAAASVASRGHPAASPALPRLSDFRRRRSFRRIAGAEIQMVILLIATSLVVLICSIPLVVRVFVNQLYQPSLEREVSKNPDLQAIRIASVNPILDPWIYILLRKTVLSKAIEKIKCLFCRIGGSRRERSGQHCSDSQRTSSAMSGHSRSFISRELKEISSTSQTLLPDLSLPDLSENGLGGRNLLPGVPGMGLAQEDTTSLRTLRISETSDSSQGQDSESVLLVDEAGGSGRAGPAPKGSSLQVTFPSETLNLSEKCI

Columns and labels:
[1] = molecular target: T1, human EP4 receptor (Homo sapiens, UniProt P35408); test: Recombinant human EP4 receptor binding assay (HEK-293-EBNA stable transfectants); conditions: read-out: Binding Data (IC50 in nM) hEP4
Description: (§1) Human Recombinant EP4 Receptor: Stable Transfectants.
(§2) Plasmids encoding the human EP4 receptor were prepared by cloning the respective coding sequences into the eukaryotic expression vector pCEP4 (Invitrogen). The pCEP4 vector contains an Epstein Barr virus (EBV) origin of replication, which permits episomal replication in primate cell lines expressing EBV nuclear antigen (EBNA-1). It also contains a hygromycin resistance gene that is used for eukaryotic selection. The cells employed for stable transfection were human embryonic kidney cells (HEK-293) that were transfected with and express the EBNA-1 protein. These HEK-293-EBNA cells (Invitrogen) were grown in medium containing Geneticin (G418) to maintain expression of the EBNA-1 protein. HEK-293 cells were grown in DMEM with 10% fetal bovine serum (FBS), 250 μg ml^−1 G418 (Life Technologies) and 200 μg ml^−1 gentamicin or penicillin/streptomycin.
(§3) For transfection, the cells were grown to 50-60% confluency on 10 cm plates. The plasmid pCEP4 incorporating cDNA inserts for the respective human prostanoid receptor (20 μg) was added to 500 μl of 250 mM CaCl2. HEPES buffered saline×2 (2×HBS, 280 mM NaCl, 20 mM HEPES acid, 1.5 mM Na2 HPO4, pH 7.05-7.12) was then added dropwise to a total of 500 μl, with continuous vortexing at room temperature. After 30 min, 9 ml DMEM were added to the mixture. […]

[2] = molecular target: T1, human EP4 receptor; test: Recombinant human EP4 receptor functional assay (HEK-293-EBNA stable transfectants); conditions: read-out: Functional Data (EC50 in nM) hEP4
Description: as §1, §2, §3

Work on `O=C(O)CCC/C=C\C[C@H]1C(=O)C[C@@H](O)C[C@@H]1/C=C/C(O)Cc1ccccc1` (single isomer, unassigned) yielded an IC50 [1] of 500 nM and an EC50 [2] of 251 nM.
